In PubChem BioAssay (NCATS):
Several values for one entry are separate records, joined by “and”; a condition that tells them apart may be missing. Equal entries are not always repeated. Only results without a clear call are listed here; the source files them as inconclusive. Unless noted, the call rests on the fitted dose curve; in most records, active means well fitted curve in the direction sought with a large enough effect; inconclusive means small, poorly fitted or top-dose-only effect, or another doubt; inactive means no such curve, though single readings can be large; an effect the other way counts as inactive or inconclusive.

By UniProt entry, the sequences of proteins in these tests, tags left out.
UniProt Q03181, whole entry: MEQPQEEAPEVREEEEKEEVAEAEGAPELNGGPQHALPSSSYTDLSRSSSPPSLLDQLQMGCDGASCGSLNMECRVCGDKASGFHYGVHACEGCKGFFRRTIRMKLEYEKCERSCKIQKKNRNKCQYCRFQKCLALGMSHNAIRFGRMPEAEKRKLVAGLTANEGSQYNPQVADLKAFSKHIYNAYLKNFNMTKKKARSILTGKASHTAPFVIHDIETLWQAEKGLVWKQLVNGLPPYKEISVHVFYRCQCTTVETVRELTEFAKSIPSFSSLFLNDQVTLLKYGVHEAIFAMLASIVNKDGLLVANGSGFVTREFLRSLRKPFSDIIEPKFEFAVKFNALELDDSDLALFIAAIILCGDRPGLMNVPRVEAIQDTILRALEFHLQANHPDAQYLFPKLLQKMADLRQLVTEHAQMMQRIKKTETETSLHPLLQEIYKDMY
UniProt P10828, whole entry: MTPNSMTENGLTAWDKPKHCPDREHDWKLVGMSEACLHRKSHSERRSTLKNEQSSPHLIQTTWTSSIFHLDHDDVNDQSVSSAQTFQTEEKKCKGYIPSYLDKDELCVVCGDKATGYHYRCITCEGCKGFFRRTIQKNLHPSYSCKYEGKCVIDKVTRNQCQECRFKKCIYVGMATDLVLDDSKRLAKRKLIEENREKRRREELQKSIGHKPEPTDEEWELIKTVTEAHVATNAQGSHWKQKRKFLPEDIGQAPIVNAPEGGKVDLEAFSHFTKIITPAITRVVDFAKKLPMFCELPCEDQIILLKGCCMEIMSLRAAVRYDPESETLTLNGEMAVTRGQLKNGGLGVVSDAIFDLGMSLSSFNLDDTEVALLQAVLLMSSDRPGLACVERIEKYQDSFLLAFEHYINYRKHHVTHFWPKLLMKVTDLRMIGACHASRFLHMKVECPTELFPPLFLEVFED

Assays:
[1] = Cellular Toxicity (caspase-3) Mesangial (AID 660); conditions: mesangial cells, normalized: DMSO 0%, 100 µM tamoxifen 100%; at 91.7 µM (top of the series);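 further: combined caspase 3 and 7 activity read by Caspase-Glo luminescence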
Outline: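 Concentration-response qHTS: compound-induced rise in caspase 3/7 luminescence in human mesangial cells after 16 h, normalized to DMSO and 100 uM tamoxifen controls.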

[2] = Cellular Toxicity (caspase-3) H-4-II-E (AID 663); conditions: H-4-II-E rat hepatoma, scaled: DMSO 0%, 100 µM tamoxifen 100%; at 92.2 µM (top of the series)
Outline: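 Rat hepatoma H-4-II-E cells (1500/well) plated 5 hr, then exposed to compound titrations for 16 hr at 37 °C. Caspase-Glo 3/7 luminescence read after 20 min at RT; data normalized to DMSO and 100 uM tamoxifen, AC50 from Hill fits.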

[3] = MultiTox-Fluor Cytotoxicity Assay - LYMP1-001 - Dead Cells (AID 946); conditions: LYMP1-001 lymphoblastoid cells, dead-cell protease fluorescence; further: potency means the concentration at half of the fitted maximal effect
Outline: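 In this qHTS, 15 uM tetraoctylammonium bromide defined 100% and DMSO defined basal activity. Lymphoblastoid cells (LYMP1-001, 2500 per well) received compound for 16 hr at 37 C before a fluorogenic dead-cell substrate readout at 485/520 nm.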

[4] = molecular target: Glucocorticoid receptor (Homo sapiens) (UniProt P04150); assay: qHTS assay for small molecule agonists of glucocorticoid receptor signaling (AID 588532; active means well fitted curve in the direction sought with a large enough effect in the signal ratio, with a control signal flat; inconclusive means small, poorly fitted or top-dose-only effect, or a change in a side signal; inactive means no such curve, though single readings can be large or run the other way; the % refers to the signal ratio; further: potency means the concentration at half of the fitted maximal effect); conditions: HeLa MMTV-bla, beta-lactamase ratio, agonist, 18 h
[5] = molecular target: Glucocorticoid receptor (Homo sapiens) (UniProt P04150); assay: qHTS assay for small molecule antagonists of glucocorticoid receptor signaling (AID 588533; active means well fitted inhibition curve with a large enough effect in the signal ratio, with a control signal flat, not every such curve was filed as active; inconclusive means small, poorly fitted or top-dose-only effect, or effect the other way, or a change in a side signal; the % refers to the signal ratio;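 further: cells stimulated with 2 nM dexamethasone as agonist; potency means the concentration at half of the fitted maximal effect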); conditions: HeLa MMTV-bla, GRE beta-lactamase ratio, antagonist mode, 18 h
[6] = molecular target: Peroxisome proliferator-activated receptor delta (Homo sapiens) (UniProt Q03181); assay: qHTS assay for small molecule antagonists of peroxisome proliferator-activated receptor delta signaling (AID 588535; active means well fitted inhibition curve with a large enough effect in the signal ratio, with a control signal flat, not every such curve was filed as active; inconclusive means small, poorly fitted or top-dose-only effect, or effect the other way, or a change in a side signal; inactive means no such curve, though single readings can be large or run the other way; the % refers to the signal ratio; further: potency means the concentration at half of the fitted maximal effect); conditions: HEK293T PPARd-UAS-bla, beta-lactamase FRET ratio, 18 h
[7] = molecular target: Peroxisome proliferator-activated receptor gamma (Homo sapiens) (UniProt P37231); assay: qHTS assay for small molecule agonists of peroxisome proliferator-activated receptor gamma signaling (AID 588536; active means well fitted curve in the direction sought with a large enough effect in the signal ratio, with a control signal flat, not every such curve was filed as active; inconclusive means small, poorly fitted or top-dose-only effect, or effect the other way, or a change in a side signal; inactive means no such curve, though single readings can be large or run the other way; the % refers to the signal ratio;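 further: 0% = DMSO basal wells and 100% = rosiglitazone at 2 µM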); conditions: HEK293 PPARg-UAS-bla, beta-lactamase ratio, 16 h, percent of rosiglitazone response, DMSO as zero; at 76.7 µM (top of the series)
Outline: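 HEK293 UAS-bla reporter line, 1% charcoal/dextran FBS; titration, 16 h, 37 C; CCF4 loading 2 h RT; fluorescence 460/530 nm. Normalized to rosiglitazone 2 uM = 100%, DMSO = 0%.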

[8] = molecular target: Retinoic acid receptor RXR-alpha (Homo sapiens) (UniProt P19793); assay: qHTS assay for small molecule agonists of retinoid X receptor alpha signaling (AID 588544; calls by dose curve; further: potency means the concentration at half of the fitted maximal effect); conditions: HEK293T RXRa-UAS-bla, beta-lactamase reporter, 18 h
[9] = molecular target: Retinoic acid receptor RXR-alpha (Homo sapiens) (UniProt P19793); assay: qHTS assay for small molecule antagonists of retinoid X receptor alpha signaling (AID 588546; active means well fitted inhibition curve with a large enough effect in the signal ratio, with a control signal flat, not every such curve was filed as active; inconclusive means small, poorly fitted or top-dose-only effect, or effect the other way, or a change in a side signal; inactive means no such curve, though single readings can be large or run the other way; the % refers to the signal ratio;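 further: cells stimulated with 9-cis-retinoic acid as agonist; on the % scale 0 is the no-effect control and ±100 the full control effect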); conditions: HEK293T RXRa-UAS-bla, beta-lactamase ratio, antagonist mode
Outline: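 Beta-lactamase reporter inhibition, read as CCF4 fluorescence ratio (ex 405, em 460/530 nm) after 2 h at RT. HEK293T UAS-bla cells, 2500/well, were stimulated with 9-cis-RA at 500 or 100 nM final alongside test compound for 18 h at 37 C.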

[10] = molecular target: Thyroid hormone receptor beta (Homo sapiens) (UniProt P10828); assay: qHTS assay for small molecule antagonists of thyroid hormone receptor beta signaling (AID 588547; active means well fitted inhibition curve with a large enough effect in the signal ratio, with a control signal flat, not every such curve was filed as active; inconclusive means small, poorly fitted or top-dose-only effect, or effect the other way, or a change in a side signal; the % refers to the signal ratio; further: potency means the concentration at half of the fitted maximal effect); conditions: TR-UAS-bla HEK293, beta-lactamase ratio, antagonist mode, 18 h
Outline: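 TR-UAS-bla GripTite HEK293 cells in 2% charcoal/dextran FBS medium; compounds 0.59 nM to 92 uM with T3 at 0.4nM final, 18 h at 37 C. Beta-lactamase read by CCF4 fluorescence (460/530 nm); Hill fits gave IC50 and efficacy.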

[11] = qHTS assay to identify small molecules that stimulate interleukin-8 (IL-8) secretion (AID 651758; active means well fitted activation curve with a large enough effect in the signal ratio; inconclusive means small, poorly fitted or top-dose-only effect, or effect the other way, or a change in a side signal; the % refers to the signal ratio; further: potency means the concentration at half of the fitted maximal effect); conditions: HTRF ratio (665/615); activation: at 92.2 µM (top of the series)
Outline: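 THP-1 cells (2000/well) exposed to compound 16 h at 37 C; secreted IL-8 then detected by HTRF with cryptate- and XL665-labelled anti-IL-8 antibody pair after 1-3 h at room temperature.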

[12] = qHTS assay for cell viability of HEK293 cells (AID 743288); conditions: ATP luminescence (CellTiter-Glo), 18 h; further: potency means the concentration at half of the fitted maximal effect; nearly all actives have a fitted effect of over 50% in size
Outline: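 Parental HEK293 cells, 2,000 per well, preincubated at least 5 h at 37 C, then exposed to compounds in DMSO for 18 h at 37 C. Viability by CellTiter-Glo ATP luminescence after 30 min at room temperature.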

[13] = qHTS Screen of the MIPE 4.0 Collection Against Ewings Sarcoma (RDES) (AID 1259252); conditions: RD-ES Ewing sarcoma viability, CellTiter-Glo, 48 h; further: potency means the concentration at half of the fitted maximal effect; nearly all actives have a fitted effect of over 35% in size
Outline: (§1)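 Viability screen: 48 h incubation at 37C, 95% humidity, 5% CO2 with serially titrated compound, followed by CellTiter-Glo readout.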

[14] = qHTS Screen of the MIPE 4.0 Collection Against Ewings Sarcoma (TC71) (AID 1259253); conditions: TC71 Ewing sarcoma viability, CellTiter-Glo, 48 h; further: potency means the concentration at half of the fitted maximal effect; nearly all actives have a fitted effect of over 40% in size
Outline: as §1

[15] = qHTS Screen of the MIPE 4.0 Collection Against Ewings Sarcoma (EW8) (AID 1259255); conditions: EW8 Ewing sarcoma viability, CellTiter-Glo, 48 h; further: potency means the concentration at half of the fitted maximal effect; nearly all actives have a fitted effect of over 35% in size
Outline: as §1

[16] = P-glycoprotein substrates identified in KB-8-5-11 adenocarcinoma cell line, qHTS therapeutic library screen (AID 1346987); conditions: KB-8-5-11 (P-gp overexpressing) viability, CellTiter-Glo, 72 h; further: potency means the concentration at half of the fitted maximal effect; nearly all actives have a fitted effect of over 65% in size
Outline: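 P-gp-mediated resistance screen: KB-8-5-11 cells treated 72 h with compounds in dose-response. CellTiter-Glo viability.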

[17] = qHTS of pediatric cancer cell lines to identify multiple opportunities for drug repurposing: Primary screen for DAOY cells (AID 1347090); conditions: DAOY medulloblastoma viability, CellTiter-Glo luminescence, 48 h; further: potency means the concentration at half of the fitted maximal effect; nearly all actives have a fitted effect of over 55% in size
Outline: (§2)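 Viability measured as metabolically active cells via CellTiter-Glo luminescence following 48 hours of compound exposure, 11-point dilutions in confirmatory testing. 500-1,000 cells/well plated 5 hours before dosing; controls were DMSO and 2.3 µM bortezomib.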

[18] = qHTS of pediatric cancer cell lines to identify multiple opportunities for drug repurposing: Primary screen for SJ-GBM2 cells (AID 1347091); conditions: SJ-GBM2 viability, CellTiter-Glo luminescence, 48 h; further: potency means the concentration at half of the fitted maximal effect
Outline: as §2

[19] = qHTS of pediatric cancer cell lines to identify multiple opportunities for drug repurposing: Primary screen for A673 cells (AID 1347092); conditions: A673 Ewing sarcoma viability, CellTiter-Glo ATP luminescence, 48 h; further: potency means the concentration at half of the fitted maximal effect; nearly all actives have a fitted effect of over 45% in size
Outline: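 A673 cells (500-1,000 cells/well) were treated 48 hours at 37 degrees C with compounds at 11-point (0.78 nM to 46 µM) or 8-point (0.59 nM to 46 µM) dilutions. Viability read by CellTiter-Glo luminescence; concentration-response curves fitted.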

[20] = qHTS of pediatric cancer cell lines to identify multiple opportunities for drug repurposing: Primary screen for SK-N-MC cells (AID 1347093); conditions: SK-N-MC viability, CellTiter-Glo luminescence, 48 h; further: potency means the concentration at half of the fitted maximal effect
[21] = qHTS of pediatric cancer cell lines to identify multiple opportunities for drug repurposing: Primary screen for BT-37 cells (AID 1347094); conditions: BT-37 viability, CellTiter-Glo luminescence, 48 h; further: potency means the concentration at half of the fitted maximal effect
Outline: (§3)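 Primary screen of approved and investigational compounds on cells in growth media at 37 degrees C, 5% CO2. MIPE set at 11-point and NPC set at 8-point dilutions; viability scored by ATP-based luminescence at 48 hours.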

[22] = qHTS of pediatric cancer cell lines to identify multiple opportunities for drug repurposing: Primary screen for NB-EBc1 cells (AID 1347095); conditions: NB-EBc1 neuroblastoma viability, CellTiter-Glo luminescence, 48 h; further: potency means the concentration at half of the fitted maximal effect
[23] = qHTS of pediatric cancer cell lines to identify multiple opportunities for drug repurposing: Primary screen for Saos-2 cells (AID 1347097); conditions: Saos-2 viability, CellTiter-Glo ATP luminescence, 48 h; further: potency means the concentration at half of the fitted maximal effect; nearly all actives have a fitted effect of over 40% in size
Outline: as §3

[24] = qHTS of pediatric cancer cell lines to identify multiple opportunities for drug repurposing: Primary screen for SK-N-SH cells (AID 1347098); conditions: SK-N-SH viability, CellTiter-Glo luminescence, 48 h; further: potency means the concentration at half of the fitted maximal effect; nearly all actives have a fitted effect of over 65% in size
Outline: (§4)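 Cells (500-1,000/well) rested 5 h, then received compounds for 48 h; metabolically active cells were measured by CellTiter-Glo luminescence. Final concentrations spanned up to 46 µM (MIPE, 11-point) or 0.59 nM-46 µM (NPC, 8-point) in primary screens, 11-point in follow-ups.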

[25] = qHTS of pediatric cancer cell lines to identify multiple opportunities for drug repurposing: Primary screen for NB1643 cells (AID 1347099); conditions: NB1643 neuroblastoma viability, CellTiter-Glo luminescence, 48 h; further: potency means the concentration at half of the fitted maximal effect; nearly all actives have a fitted effect of over 50% in size
[26] = qHTS of pediatric cancer cell lines to identify multiple opportunities for drug repurposing: Primary screen for LAN-5 cells (AID 1347100); conditions: LAN-5 neuroblastoma viability, CellTiter-Glo luminescence, 48 h; further: potency means the concentration at half of the fitted maximal effect
Outline: (§5)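 Viability after 48 h compound treatment at 37C, 500-1,000 cells/well, read as ATP luminescence with CellTiter-Glo. Primary screens used 11-point (MIPE, 0.78 nM-46 µM) or 8-point (NPC, 0.59 nM-46 µM) final concentrations; follow-up screens used 11-point dilutions.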

[27] = qHTS of pediatric cancer cell lines to identify multiple opportunities for drug repurposing: Primary screen for OHS-50 cells (AID 1347103); conditions: OHS-50 osteosarcoma viability, CellTiter-Glo luminescence, 48 h; further: potency means the concentration at half of the fitted maximal effect; nearly all actives have a fitted effect of over 40% in size
Outline: as §4

[28] = qHTS of pediatric cancer cell lines to identify multiple opportunities for drug repurposing: Primary screen for RD cells (AID 1347104); conditions: RD rhabdomyosarcoma viability, CellTiter-Glo luminescence, 48 h; further: potency means the concentration at half of the fitted maximal effect; nearly all actives have a fitted effect of over 55% in size
Outline: as §3

[29] = qHTS of pediatric cancer cell lines to identify multiple opportunities for drug repurposing: Confirmatory screen for BT-12 cells (AID 1347112); conditions: BT-12 rhabdoid tumor cells, viability; further: potency means the concentration at half of the fitted maximal effect; nearly all actives have a fitted effect of over 55% in size
Outline: as §5

[30] = qHTS of pediatric cancer cell lines to identify multiple opportunities for drug repurposing: Confirmatory screen for NB-EBc1 cells (AID 1347115); conditions: NB-EBc1 neuroblastoma cells, viability (cytotoxicity);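 further: potency means the concentration at half of the fitted maximal effect; cells exposed to compound for 48 h before the viability read; nearly all actives have a fitted effect of over 45% in size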
Outline: as §5

[31] = qHTS of pediatric cancer cell lines to identify multiple opportunities for drug repurposing: Confirmatory screen for BT-37 cells (AID 1347117); conditions: BT-37 pediatric cancer cells, viability; further: potency means the concentration at half of the fitted maximal effect; nearly all actives have a fitted effect of over 55% in size
Outline: as §5

[32] = qHTS of pediatric cancer cell lines to identify multiple opportunities for drug repurposing: Confirmatory screen for MG 63 (6-TG R) cells (AID 1347119); conditions: MG-63 (6-TG resistant) osteosarcoma viability
Outline: as §5

[33] = qHTS of pediatric cancer cell lines to identify multiple opportunities for drug repurposing: Confirmatory screen for Rh41 cells (AID 1347123); conditions: Rh41 rhabdomyosarcoma cells, viability/cytotoxicity qHTS;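 further: potency means the concentration at half of the fitted maximal effect; 48 h compound exposure; nearly all actives have a fitted effect of over 60% in size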
Outline: as §5

[34] = qHTS of pediatric cancer cell lines to identify multiple opportunities for drug repurposing: Confirmatory screen for Rh30 cells (AID 1347126); conditions: Rh30 rhabdomyosarcoma cell viability
Outline: as §5

[35] = qHTS of pediatric cancer cell lines to identify multiple opportunities for drug repurposing: Confirmatory screen for OHS-50 cells (AID 1347128); conditions: OHS-50 osteosarcoma cells viability
Outline: as §5

CN(CCCl)CCCl
inconclusive: caspase-3 activation [1] 26.1% | caspase-3 activation [2] 1.01% | Potency [3] 25.1 µM | Potency [4] 50.1 µM | Potency [5] 44.7 µM | Potency [6] 15.8 µM | activation [7] -17.4% | Potency [8] 22.4 µM | max response [9] 22.6% | Potency [10] 10 µM | Potency [11] 66.8 µM | Potency [12] 39.8 µM | Potency [13] 33.2 µM | Potency [14] 33.2 µM | Potency [15] 37.2 µM | Potency [16] 18.4 µM | Potency [17] 26.6 µM and 37.2 µM | Potency [18] 29.9 µM | Potency [19] 37.2 µM | Potency [20] 37.2 µM | Potency [21] 24.6 µM | Potency [22] 21.1 µM | Potency [23] 26.6 µM | Potency [24] 6.12 µM | Potency [25] 29.9 µM | Potency [26] 21.1 µM and 33.2 µM | Potency [27] 34.7 µM and 43.2 µM | Potency [28] 26.6 µM | Potency [29] 36.9 µM | Potency [30] 29.3 µM | Potency [31] 32.9 µM | Potency [32] 36.9 µM | Potency [33] 20.8 µM | Potency [34] 32.9 µM | Potency [35] 36.9 µM
